According to the supplement of paper PMC10849652:
Some of the results follow.

Amino acid sequences for entries named in this document (tags omitted). A change or cut given only in a name is not applied to a line headed by its entry.
UniProt P23526: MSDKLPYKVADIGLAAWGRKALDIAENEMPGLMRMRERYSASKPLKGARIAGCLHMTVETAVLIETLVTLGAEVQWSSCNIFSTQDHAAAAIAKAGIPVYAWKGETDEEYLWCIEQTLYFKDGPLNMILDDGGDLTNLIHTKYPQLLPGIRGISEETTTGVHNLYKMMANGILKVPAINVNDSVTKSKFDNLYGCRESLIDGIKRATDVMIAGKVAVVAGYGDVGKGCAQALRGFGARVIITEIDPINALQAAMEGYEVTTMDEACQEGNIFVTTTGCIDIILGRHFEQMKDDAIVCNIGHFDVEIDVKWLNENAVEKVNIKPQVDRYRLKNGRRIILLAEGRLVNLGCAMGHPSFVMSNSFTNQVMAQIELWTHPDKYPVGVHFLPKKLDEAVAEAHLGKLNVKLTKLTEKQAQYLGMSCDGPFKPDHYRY
UniProt Q92667: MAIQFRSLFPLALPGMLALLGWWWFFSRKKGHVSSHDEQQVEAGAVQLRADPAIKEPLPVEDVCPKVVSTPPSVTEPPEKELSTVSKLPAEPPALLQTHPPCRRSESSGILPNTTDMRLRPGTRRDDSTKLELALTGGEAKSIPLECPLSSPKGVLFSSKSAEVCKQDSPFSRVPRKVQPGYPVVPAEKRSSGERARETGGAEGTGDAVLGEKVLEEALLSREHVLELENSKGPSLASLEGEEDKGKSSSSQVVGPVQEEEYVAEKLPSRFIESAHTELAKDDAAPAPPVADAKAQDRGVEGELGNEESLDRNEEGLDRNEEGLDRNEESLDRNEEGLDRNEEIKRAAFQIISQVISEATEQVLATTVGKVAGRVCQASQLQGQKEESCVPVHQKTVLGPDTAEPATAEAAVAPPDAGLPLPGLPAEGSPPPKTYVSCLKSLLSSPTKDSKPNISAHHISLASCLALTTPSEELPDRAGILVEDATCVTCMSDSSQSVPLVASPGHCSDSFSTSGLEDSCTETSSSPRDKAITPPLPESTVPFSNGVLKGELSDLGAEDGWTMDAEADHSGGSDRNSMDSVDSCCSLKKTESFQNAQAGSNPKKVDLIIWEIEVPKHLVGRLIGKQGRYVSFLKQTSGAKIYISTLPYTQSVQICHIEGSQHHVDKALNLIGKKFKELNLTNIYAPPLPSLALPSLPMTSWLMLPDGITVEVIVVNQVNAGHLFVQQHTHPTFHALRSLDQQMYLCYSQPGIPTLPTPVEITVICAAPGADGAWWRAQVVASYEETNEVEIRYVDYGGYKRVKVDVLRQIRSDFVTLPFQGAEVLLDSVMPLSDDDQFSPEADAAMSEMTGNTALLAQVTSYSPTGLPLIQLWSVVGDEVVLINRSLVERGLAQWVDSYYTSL
UniProt Q96HN2, whole entry, looked up: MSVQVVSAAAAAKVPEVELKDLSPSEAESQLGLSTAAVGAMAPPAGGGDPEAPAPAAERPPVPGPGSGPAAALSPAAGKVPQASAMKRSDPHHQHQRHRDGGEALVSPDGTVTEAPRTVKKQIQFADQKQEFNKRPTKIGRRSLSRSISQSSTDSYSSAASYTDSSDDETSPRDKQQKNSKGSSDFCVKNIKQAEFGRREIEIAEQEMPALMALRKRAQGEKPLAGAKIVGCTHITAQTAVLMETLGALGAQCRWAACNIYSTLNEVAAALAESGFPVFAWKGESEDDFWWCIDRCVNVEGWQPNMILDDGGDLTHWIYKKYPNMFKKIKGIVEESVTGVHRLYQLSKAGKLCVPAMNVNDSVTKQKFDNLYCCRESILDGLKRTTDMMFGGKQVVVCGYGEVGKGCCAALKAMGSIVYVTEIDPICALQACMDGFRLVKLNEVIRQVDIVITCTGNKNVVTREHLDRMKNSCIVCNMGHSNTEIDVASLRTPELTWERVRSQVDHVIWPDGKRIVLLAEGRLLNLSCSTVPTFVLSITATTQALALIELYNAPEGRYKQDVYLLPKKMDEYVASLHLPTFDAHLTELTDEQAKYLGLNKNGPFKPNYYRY
UniProt Q53H12: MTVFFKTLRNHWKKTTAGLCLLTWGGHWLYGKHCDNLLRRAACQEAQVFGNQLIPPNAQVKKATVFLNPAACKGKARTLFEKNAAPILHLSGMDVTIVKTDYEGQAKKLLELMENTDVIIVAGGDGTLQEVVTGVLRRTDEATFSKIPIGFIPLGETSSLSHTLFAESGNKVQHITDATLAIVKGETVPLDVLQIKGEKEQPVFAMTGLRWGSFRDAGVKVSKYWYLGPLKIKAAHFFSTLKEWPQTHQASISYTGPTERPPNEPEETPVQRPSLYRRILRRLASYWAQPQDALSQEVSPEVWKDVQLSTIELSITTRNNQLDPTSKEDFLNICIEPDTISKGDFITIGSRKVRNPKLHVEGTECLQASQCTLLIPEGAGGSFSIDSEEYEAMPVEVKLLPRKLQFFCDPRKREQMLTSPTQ
UniProt Q6ULP2: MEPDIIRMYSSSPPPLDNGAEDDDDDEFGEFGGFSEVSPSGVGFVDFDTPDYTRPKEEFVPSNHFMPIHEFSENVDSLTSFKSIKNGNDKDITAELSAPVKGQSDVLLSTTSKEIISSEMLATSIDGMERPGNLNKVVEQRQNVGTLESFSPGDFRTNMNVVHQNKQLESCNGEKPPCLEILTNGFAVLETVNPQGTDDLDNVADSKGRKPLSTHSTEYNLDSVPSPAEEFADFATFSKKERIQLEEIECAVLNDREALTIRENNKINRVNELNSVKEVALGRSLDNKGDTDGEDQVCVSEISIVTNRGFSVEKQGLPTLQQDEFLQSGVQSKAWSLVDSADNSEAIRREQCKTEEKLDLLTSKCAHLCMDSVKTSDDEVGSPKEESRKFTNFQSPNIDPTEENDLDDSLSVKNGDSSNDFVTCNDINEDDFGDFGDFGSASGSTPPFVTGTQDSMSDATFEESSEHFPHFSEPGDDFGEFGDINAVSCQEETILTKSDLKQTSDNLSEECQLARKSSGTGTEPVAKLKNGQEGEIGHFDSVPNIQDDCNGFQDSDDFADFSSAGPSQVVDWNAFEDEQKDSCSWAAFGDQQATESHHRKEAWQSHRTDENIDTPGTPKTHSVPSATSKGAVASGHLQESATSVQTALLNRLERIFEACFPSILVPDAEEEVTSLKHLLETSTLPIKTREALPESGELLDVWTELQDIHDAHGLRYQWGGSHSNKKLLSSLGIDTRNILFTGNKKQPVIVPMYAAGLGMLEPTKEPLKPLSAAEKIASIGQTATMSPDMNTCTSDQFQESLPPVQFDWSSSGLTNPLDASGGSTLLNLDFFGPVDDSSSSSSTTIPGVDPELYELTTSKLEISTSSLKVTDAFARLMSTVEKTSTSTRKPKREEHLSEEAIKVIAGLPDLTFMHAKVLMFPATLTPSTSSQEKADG
UniProt Q02952: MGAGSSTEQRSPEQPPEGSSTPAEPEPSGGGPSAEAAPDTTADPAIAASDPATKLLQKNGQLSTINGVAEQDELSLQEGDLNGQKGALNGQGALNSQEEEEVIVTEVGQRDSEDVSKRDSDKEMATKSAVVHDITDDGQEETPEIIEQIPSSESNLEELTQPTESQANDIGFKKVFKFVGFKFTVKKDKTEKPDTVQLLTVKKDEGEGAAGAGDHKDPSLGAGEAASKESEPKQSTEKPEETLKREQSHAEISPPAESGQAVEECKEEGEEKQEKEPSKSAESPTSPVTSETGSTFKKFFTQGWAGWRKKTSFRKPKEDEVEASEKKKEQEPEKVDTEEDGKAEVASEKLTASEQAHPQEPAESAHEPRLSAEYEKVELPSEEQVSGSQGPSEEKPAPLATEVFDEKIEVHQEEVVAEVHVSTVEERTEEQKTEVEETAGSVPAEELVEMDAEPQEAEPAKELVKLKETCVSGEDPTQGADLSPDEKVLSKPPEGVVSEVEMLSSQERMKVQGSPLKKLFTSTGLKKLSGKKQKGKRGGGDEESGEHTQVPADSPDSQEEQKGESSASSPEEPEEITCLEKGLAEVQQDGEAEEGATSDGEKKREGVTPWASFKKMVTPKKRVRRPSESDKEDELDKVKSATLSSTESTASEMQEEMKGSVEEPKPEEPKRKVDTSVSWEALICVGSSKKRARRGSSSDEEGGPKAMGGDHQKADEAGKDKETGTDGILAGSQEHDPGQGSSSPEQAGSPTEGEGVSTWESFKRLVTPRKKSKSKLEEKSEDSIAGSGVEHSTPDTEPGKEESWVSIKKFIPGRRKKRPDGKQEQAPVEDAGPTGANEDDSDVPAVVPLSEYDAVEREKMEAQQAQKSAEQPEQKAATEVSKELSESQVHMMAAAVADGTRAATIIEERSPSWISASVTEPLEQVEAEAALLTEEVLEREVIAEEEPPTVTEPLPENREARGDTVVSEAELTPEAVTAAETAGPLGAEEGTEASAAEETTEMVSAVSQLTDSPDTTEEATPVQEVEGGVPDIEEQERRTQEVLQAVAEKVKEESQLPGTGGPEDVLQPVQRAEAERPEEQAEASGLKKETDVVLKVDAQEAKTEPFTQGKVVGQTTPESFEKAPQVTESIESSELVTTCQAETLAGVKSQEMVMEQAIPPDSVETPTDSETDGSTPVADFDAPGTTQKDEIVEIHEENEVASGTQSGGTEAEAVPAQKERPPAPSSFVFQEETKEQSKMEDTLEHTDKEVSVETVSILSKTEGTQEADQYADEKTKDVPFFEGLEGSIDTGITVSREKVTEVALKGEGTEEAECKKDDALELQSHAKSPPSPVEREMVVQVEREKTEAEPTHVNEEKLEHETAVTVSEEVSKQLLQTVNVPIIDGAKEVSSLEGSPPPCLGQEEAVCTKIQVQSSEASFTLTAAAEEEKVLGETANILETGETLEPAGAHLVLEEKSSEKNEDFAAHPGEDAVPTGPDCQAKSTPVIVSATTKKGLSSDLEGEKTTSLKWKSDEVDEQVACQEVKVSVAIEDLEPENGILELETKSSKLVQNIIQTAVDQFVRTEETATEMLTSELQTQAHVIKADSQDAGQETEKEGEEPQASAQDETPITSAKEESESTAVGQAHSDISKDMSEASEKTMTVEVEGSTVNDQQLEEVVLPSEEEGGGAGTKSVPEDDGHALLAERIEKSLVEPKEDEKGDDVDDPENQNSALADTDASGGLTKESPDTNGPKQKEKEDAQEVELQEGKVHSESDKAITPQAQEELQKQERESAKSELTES
UniProt Q12904: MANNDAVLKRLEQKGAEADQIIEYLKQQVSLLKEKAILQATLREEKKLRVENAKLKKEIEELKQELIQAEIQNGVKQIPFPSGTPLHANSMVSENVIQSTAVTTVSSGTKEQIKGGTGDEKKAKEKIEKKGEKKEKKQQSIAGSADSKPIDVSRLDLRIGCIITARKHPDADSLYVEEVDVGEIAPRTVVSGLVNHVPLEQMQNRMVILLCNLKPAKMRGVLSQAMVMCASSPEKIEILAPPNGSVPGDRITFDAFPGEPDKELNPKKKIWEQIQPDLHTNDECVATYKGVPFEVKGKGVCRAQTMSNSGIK
UniProt Q13155: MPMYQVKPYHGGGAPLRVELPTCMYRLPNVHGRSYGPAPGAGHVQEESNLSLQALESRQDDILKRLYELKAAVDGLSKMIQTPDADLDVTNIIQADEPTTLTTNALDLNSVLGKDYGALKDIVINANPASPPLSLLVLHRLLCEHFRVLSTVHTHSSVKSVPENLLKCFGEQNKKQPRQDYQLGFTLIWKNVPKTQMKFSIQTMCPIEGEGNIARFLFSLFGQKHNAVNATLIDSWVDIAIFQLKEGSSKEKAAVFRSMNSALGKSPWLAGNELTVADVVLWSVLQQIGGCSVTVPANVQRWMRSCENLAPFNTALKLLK
UniProt P51649: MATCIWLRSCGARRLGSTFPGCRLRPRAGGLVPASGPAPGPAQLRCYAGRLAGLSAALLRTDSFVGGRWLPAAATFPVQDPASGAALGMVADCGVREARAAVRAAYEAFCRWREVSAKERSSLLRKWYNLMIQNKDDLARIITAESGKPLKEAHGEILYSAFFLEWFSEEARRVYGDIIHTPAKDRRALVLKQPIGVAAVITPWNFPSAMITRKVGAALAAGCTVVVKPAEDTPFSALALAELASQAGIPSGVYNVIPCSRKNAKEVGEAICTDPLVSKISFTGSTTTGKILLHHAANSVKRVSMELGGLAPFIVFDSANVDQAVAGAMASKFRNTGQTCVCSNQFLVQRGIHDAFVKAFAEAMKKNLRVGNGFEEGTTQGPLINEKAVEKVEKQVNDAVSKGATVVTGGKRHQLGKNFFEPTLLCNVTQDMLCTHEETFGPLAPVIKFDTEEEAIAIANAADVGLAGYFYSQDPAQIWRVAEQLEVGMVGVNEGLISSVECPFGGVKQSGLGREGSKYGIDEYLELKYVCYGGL

Tests used:
Assay in all cases: log2 fold change, soluble protein after heating vs DMSO (PISA); higher = thermal stabilisation; K562 cells, 10 uM, 30 min; active = over 0.2 and 3.5 SD of the protein, either way, in both replicates (recomputed)
[1] = compound: CC[C@@H]1C(=O)N(C)c2cnc(Nc3ccc(C(=O)NC4CCN(C)CC4)cc3OC)nc2N1C1CCCC1
Outline: (§1)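 Soluble protein was defined as the supernatant after 21,000xg for 90 min. It came from K562 cells at 2×10^6 cells/mL given 10 μM compound for 30 min, heated in aliquots for 3 min across 48°C-58°C, pooled, and extracted in PBS with 0.5% NP-40 at 4°C, and was quantified by TMTpro 16plex LC-MS/MS with equalised channel sums. Thermal stability against control samples, from duplicates, is reported as log2 fold change.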

volasertib = compound: CC[C@@H]1C(=O)N(C)c2cnc(Nc3ccc(C(=O)N[C@H]4CC[C@H](N5CCN(CC6CC6)CC5)CC4)cc3OC)nc2N1C(C)C [volasertib]
Outline: as §1

[2] = compound: CC[C@H](C)N1C=C(C2=C(C=C(C=C21)C3=CN=C(C=C3)N4CCNCC4)C(=O)NCC5=C(C=C(NC5=O)C)C)C
Outline: as §1

epoxomicin = compound: CC[C@H](C)[C@@H](C(=O)N[C@@H]([C@@H](C)O)C(=O)N[C@@H](CC(C)C)C(=O)[C@]1(CO1)C)NC(=O)[C@H]([C@@H](C)CC)N(C)C(=O)C [epoxomicin]
Outline: as §1

[3] = compound: CCn1c(C(=O)N(C2CC2)C2CC2)cc2c3c(ncn3C)c(Nc3cc(C)n(C)n3)nc21
Outline: as §1

[4] = compound: CCn1cc(-c2ccnc3[nH]c(-c4cccc(CN(C)C)c4)cc23)c(-c2ccc(NC(=O)N(C)C)cc2)n1
Outline: as §1

[5] = compound: CN(C)CC(=O)Nc1ccc2[nH]c(=O)c3ccccc3c2c1
Outline: as §1

rosiglitazone = compound: CN(CCOC1=CC=C(C=C1)C[C@H]2C(=O)NC(=O)S2)C3=CC=CC=N3 (racemic) [rosiglitazone]
Outline: as §1

[6] = compound: CN1C2=C(C3=C1C(=O)N(N=C3)CC4=CC(=CC=C4)N)SC(=C2)S(=O)C
Outline: as §1

[7] = compound: CN1CCC(CNc2ccc3ncc(-c4cccc(OC(F)(F)F)c4)n3n2)CC1
Outline: as §1

Measured: log2 fold change

AHCY (UniProt P23526)
inactive: [1] 0.028 | volasertib 0.054 | [2] -0.031 | epoxomicin -0.017 | [3] 0.009 | [4] -0.031 | [5] -0.051 | rosiglitazone 0.021 | [6] -0.032 | [7] -0.018

AGAP3 isoform 4 (UniProt Q96P47)
inactive: [1] 0.154 | volasertib -0.038 | [2] 0.105 | epoxomicin 0.034

AKAP1 (UniProt Q92667)
inactive: [1] 0.041 | volasertib -0.077 | [2] 0.112 | epoxomicin -0.102 | [3] -0.063 | [4] 0.041 | [5] 0.025 | rosiglitazone 0.001 | [6] 0.165 | [7] 0.026

AKR1A1 (UniProt P14550)
inactive: [1] -0.015 | volasertib 0.009 | [2] 0.02 | epoxomicin 0.028 | [3] -0.002 | [4] -0.066 | [5] 0.027 | rosiglitazone 0.03 | [6] -0.068 | [7] 0.042

ALAD isoform 2 (UniProt P13716)
inactive: [1] 0.06 | volasertib 0.108 | [2] 0.052 | epoxomicin 0.08 | [3] -0.03 | [4] 0.048 | [5] 0.039 | rosiglitazone 0.026 | [6] -0.042 | [7] 0.025

ADO (UniProt Q96SZ5)
inactive: [1] -0.024 | volasertib 0.05 | [2] -0.04 | epoxomicin 0.021 | [3] -0.011 | [4] -0.019 | [5] 0.016 | rosiglitazone 0.013 | [6] -0.046 | [7] 0.047

AGO3 (UniProt Q9H9G7)
inactive: [1] 0.223 | volasertib 0.11 | [2] 0.051 | epoxomicin -0.046 | [3] 0.109 | [4] 0.147 | [5] -0.096 | rosiglitazone -0.073 | [6] 0.023 | [7] -0.085

ADSL (UniProt P30566)
inactive: [1] 0.01 | volasertib 0.049 | [2] -0.044 | epoxomicin 0.03 | [3] 0.006 | [4] -0.015 | [5] -0.014 | rosiglitazone -0.018 | [6] -0.019 | [7] 0

AKT1S1 isoform 3 (UniProt Q96B36)
inactive: [1] 0.025 | volasertib 0.139 | [2] 0.028 | epoxomicin 0.015 | [3] -0.016 | [4] 0.006 | [5] -0.025 | rosiglitazone -0.014 | [6] -0.062 | [7] 0.03

AMN1 (UniProt Q8IY45)
inactive: [1] 0.027 | volasertib -0.155 | [2] -0.001 | epoxomicin -0.04 | [3] -0.078 | [4] -0.178 | [5] -0.189 | rosiglitazone 0.058 | [6] -0.198 | [7] -0.19

ALG6 (UniProt Q9Y672)
inactive: [1] 0.018 | volasertib 0.023 | [2] 0.074 | epoxomicin -0.079 | [3] -0.033 | [4] -0.082 | [5] 0.091 | rosiglitazone 0.057 | [6] -0.064 | [7] -0.16

AK4 (UniProt P27144)
inactive: [1] 0.008 | volasertib 0.043 | [2] 0.012 | epoxomicin 0.032 | [3] 0.003 | [4] -0.017 | [5] -0.026 | rosiglitazone 0.041 | [6] -0.01 | [7] -0.007

AHCYL2 (UniProt Q96HN2)
inactive: [1] -0.021 | volasertib 0.042 | [2] -0.028 | epoxomicin 0.034 | [3] 0.004 | [4] 0.013 | [5] -0.02 | rosiglitazone 0.017 | [6] -0.069 | [7] -0.044

AKR1B1 (UniProt P15121)
inactive: [1] 0.002 | volasertib 0.056 | [2] -0.043 | epoxomicin 0.046 | [3] 0.021 | [4] 0 | [5] -0.017 | rosiglitazone 0.01 | [6] -0.034 | [7] 0.002

AIDA (UniProt Q96BJ3)
inactive: [1] -0.009 | volasertib -0.139 | [2] 0.027 | epoxomicin 0.054 | [3] -0.031 | [4] -0.063 | [5] 0.023 | rosiglitazone 0.034 | [6] -0.039 | [7] 0.004

AK3 (UniProt Q9UIJ7)
inactive: [1] 0.028 | volasertib 0.052 | [2] -0.038 | epoxomicin -0.012 | [3] 0 | [4] -0.003 | [5] 0.012 | rosiglitazone 0.008 | [6] -0.038 | [7] -0.014

AK2 isoform 2 (UniProt P54819)
inactive: [1] 0.009 | volasertib 0.124 | [2] -0.033 | epoxomicin 0.002 | [3] 0 | [4] -0.003 | [5] -0.017 | rosiglitazone 0.014 | [6] -0.034 | [7] -0.011

AGK (UniProt Q53H12)
inactive: [1] -0.075 | volasertib -0.041 | [2] 0.008 | epoxomicin 0.027 | [3] 0.007 | [4] 0.012 | [5] 0.007 | rosiglitazone -0.036 | [6] -0.012 | [7] -0.096

AFTPH isoform 9 (UniProt Q6ULP2)
inactive: [1] -0.008 | volasertib -0.15 | [2] 0.058 | epoxomicin 0.021 | [3] 0.003 | [4] 0.004 | [5] -0.007 | rosiglitazone 0.043 | [6] 0.036 | [7] -0.105

ADSS2 (UniProt P30520)
inactive: [1] 0.033 | volasertib 0.045 | [2] -0.012 | epoxomicin -0.035 | [3] 0.007 | [4] -0.011 | [5] 0.006 | rosiglitazone 0.013 | [6] -0.108 | [7] -0.002

ALG2 (UniProt Q9H553)
inactive: [1] 0.025 | volasertib -0.152 | [2] 0.023 | epoxomicin -0.003 | [3] -0.011 | [4] 0.001 | [5] 0.056 | rosiglitazone 0.032 | [6] -0.013 | [7] -0.081

AKAP12 (UniProt Q02952)
inactive: [1] 0.179 | volasertib 0.056 | [2] 0.151 | epoxomicin 0.013 | [3] 0.019 | [4] -0.035 | [5] -0.083 | rosiglitazone 0.024 | [6] -0.072 | [7] 0.03

AIMP1 isoform 2 (UniProt Q12904)
inactive: [1] 0.151 | volasertib 0.02 | [2] 0.061 | epoxomicin -0.232 | [3] -0.04 | [4] 0.134 | [5] -0.031 | rosiglitazone -0.083 | [6] 0.353 | [7] 0.039

AIFM1 (UniProt O95831)
inactive: [1] 0.01 | volasertib 0.02 | [2] -0.018 | epoxomicin -0.011 | [3] 0.004 | [4] 0.012 | [5] 0.004 | rosiglitazone -0.001 | [6] -0.061 | [7] 0.072

AGO4 (UniProt Q9HCK5)
inactive: [1] 0.168 | volasertib 0.012 | [2] -0.02 | epoxomicin -0.147 | [3] -0.016 | [4] 0.014 | [5] -0.027 | rosiglitazone -0.018 | [6] 0.106 | [7] 0.003

AIF1L isoform 2 (UniProt Q9BQI0)
inactive: [1] -0.17 | volasertib -0.076 | [2] 0.171 | epoxomicin 0.031 | [3] 0.07 | [4] 0.016 | [5] 0.101 | rosiglitazone -0.007 | [6] -0.144 | [7] 0.002

Reprinted from the listing (two entries):
AK4 (UniProt P27144)
inactive: [1] 0.008 | volasertib 0.043 | [2] 0.012 | epoxomicin 0.032 | [3] 0.003 | [4] -0.017 | [5] -0.026 | rosiglitazone 0.041 | [6] -0.01 | [7] -0.007

AHCYL2 (UniProt Q96HN2)
inactive: [1] -0.021 | volasertib 0.042 | [2] -0.028 | epoxomicin 0.034 | [3] 0.004 | [4] 0.013 | [5] -0.02 | rosiglitazone 0.017 | [6] -0.069 | [7] -0.044

(next part)

AIMP2 (UniProt Q13155)
inactive: [1] 0.099 | volasertib 0.097 | [2] 0.043 | epoxomicin -0.361 | [3] -0.218 | [4] 0.187 | [5] 0 | rosiglitazone -0.035 | [6] 0.424 | [7] 0.067

ALG13 (UniProt Q9NP73)
inactive: [1] 0.054 | volasertib 0.007 | [2] 0.045 | epoxomicin 0.126 | [3] 0.056 | [4] -0.046 | [5] 0.049 | rosiglitazone -0.002 | [6] -0.033 | [7] -0.075

AMDHD2 isoform 3 (UniProt Q9Y303)
inactive: [1] 0.013 | volasertib -0.033 | [2] 0.026 | epoxomicin -0.018 | [3] -0.055 | [4] -0.061 | [5] 0.009 | rosiglitazone 0.022 | [6] -0.054 | [7] -0.043

ALDH5A1 isoform 2 (UniProt P51649)
inactive: [1] 0.025 | volasertib 0.037 | [2] -0.011 | epoxomicin 0.028 | [3] 0.002 | [4] 0.013 | [5] 0 | rosiglitazone 0.014 | [6] -0.055 | [7] 0.046
